Measured values taken from publication PMC9508819, “Rbp95 binds to 25S rRNA helix H95 and cooperates with the Npa1 complex during early pre-60S particle maturation”.
No constants are given. Whether binding was seen depends on the method and setting. In cells and extracts the contact can be indirect. These calls come from enrichment with a bait or labelling near it, and not all partners need be listed.

T1: Ssf1-TAP (S. cerevisiae) (UniProt P38789)
T1 sequence: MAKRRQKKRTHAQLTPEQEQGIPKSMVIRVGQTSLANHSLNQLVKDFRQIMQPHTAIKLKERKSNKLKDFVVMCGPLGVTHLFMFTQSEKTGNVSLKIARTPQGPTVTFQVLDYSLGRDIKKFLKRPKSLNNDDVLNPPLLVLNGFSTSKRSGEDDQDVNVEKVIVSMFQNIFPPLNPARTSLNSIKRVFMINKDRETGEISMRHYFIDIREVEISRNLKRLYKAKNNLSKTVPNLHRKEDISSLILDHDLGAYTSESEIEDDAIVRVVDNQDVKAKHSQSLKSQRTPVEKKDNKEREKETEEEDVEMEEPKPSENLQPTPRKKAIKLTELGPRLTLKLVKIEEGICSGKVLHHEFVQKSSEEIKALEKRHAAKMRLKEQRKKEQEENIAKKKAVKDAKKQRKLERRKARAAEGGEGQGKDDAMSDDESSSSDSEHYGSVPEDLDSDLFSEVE

B1: Utp18 (protein, UniProt P40362 1-594)
chain: MTMATTAMNVSVPPPDEEEQLLAKFVFGDTTDLQENLAKFNADFIFNEQEMDVEDQEDEGSESDNSEEDEAQNGELDHVNNDQLFFVDDGGNEDSQDKNEDTMDVDDEDDSSSDDYSEDSEEAAWIDSDDEKIKVPILVTNKTKKLRTSYNESKINGVHYINRLRSQFEKIYPRPKWVDDESDSELDDEEDDEEEGSNNVINGDINALTKILSTTYNYKDTLSNSKLLPPKKLDIVRLKDANASHPSHSAIQSLSFHPSKPLLLTGGYDKTLRIYHIDGKTNHLVTSLHLVGSPIQTCTFYTSLSNQNQQNIFTAGRRRYMHSWDLSLENLTHSQTAKIEKFSRLYGHESTQRSFENFKVAHLQNSQTNSVHGIVLLQGNNGWINILHSTSGLWLMGCKIEGVITDFCIDYQPISRGKFRTILIAVNAYGEVWEFDLNKNGHVIRRWKDQGGVGITKIQVGGGTTTTCPALQISKIKQNRWLAVGSESGFVNLYDRNNAMTSSTPTPVAALDQLTTTISNLQFSPDGQILCMASRAVKDALRLVHLPSCSVFSNWPTSGTPLGKVTSVAFSPSGGLLAVGNEQGKVRLWKLNHY
B2: Utp5 (protein, UniProt Q04177 1-643)
chain: MDSPVLQSAYDPSGQYLCYVTVALDKQRVGVQPTQRATSSGVDTVWNENFLYLEDSKLKVTCLKWVNLASSDTVAIILGMNNGEIWLYSVLANEVTYKFTTGNSYEIKDIDLMGNQLWCIDSSDAFYQFDLLQFKLLQHFRINNCVQLNKLTIVPAGDSVAQLLVASHSISLIDIEEKKVVMTFPGHVSPVSTLQVITNEFFISGAEGDRFLNVYDIHSGMTKCVLVAESDIKELSHSGQADSIAVTTEDGSLEIFVDPLVSSSTKKRGNKSKKSSKKIQIVSKDGRKVPIYNAFINKDLLNVSWLQNATMPYFKNLQWREIPNEYTVEISLNWNNKNKSADRDLHGKDLASATNYVEGNARVTSGDNFKHVDDAIKSWERELTSLEQEQAKPPQANELLTETFGDKLESSTVARISGKKTNLKGSNLKTATTTGTVTVILSQALQSNDHSLLETVLNNRDERVIRDTIFRLKPALAVILLERLAERIARQTHRQGPLNVWVKWCLIIHGGYLVSIPNLMSTLSSLHSTLKRRSDLLPRLLALDARLDCTINKFKTLNYEAGDIHSSEPVVEEDEDDVEYNEELDDAGLIEDGEESYGSEEEEEGDSDNEEEQKHTSSKQDGRLETEQSDGEEEAGYSDVEME
B3: Noc1 (protein, UniProt Q12176 1-1025)
chain: MSENNGNPLDLSSLRNKISSKLRDNNSKKAKKTHKGKDVKASSNSKKVNEDIRREALALGASEEDLKLIQGLSDDDDAKSEQEFDAVADEDADDKGFKNDLQNFMKNVGFDQHKLEDVDDDDIEEESTSSKESKIPAQEKEHAQSNIASSTIEKTSQESIDNGSEQEENTVEEANLSSDQEPESESAEKEKKEEKDGGLITQTTIISSDKLIIPYDKPWYEIPLDPQVGQNDDVEELSKEQIEKLFERGKQTLEADNQTYYEEFTKDSSQAKFMSQILSDGTLNDKISAVTLLIQDSPLHNTKSLETLVSYCGKKSRNSALQSLNALKDLFLNGLLPNRKLRYFKNQPGLSMMLNKKTLAIFYFEDYLKKLFFRVLEVLEVLSHDPIIHVRLQILNHVFDLLTNQPEQEFNLLRLGVNKIGDIDSKVSSKASYLLLKLEQAHPNMKSIVIDAIVDIALRPNADYHTTYYSVITLNQTILKRSEDSVANKLVKTYFTLFEKFLINTDKDNTNGVVKSNSKSYEEKRKKNFKKGKHGGKSVKIEKTENEVLDEKNSKLFSALLTGINRAFPFAQIPASVYEVHMETLFKITHSSNFNTSIQALVLINQVTVKAKLNSDRYYRTLYESLFDPRLVNSSKQGIYLNLLYKSLKQDALNVERVEAFVKRILQVCSHWLNVGTITGFFFLLIQLAKTVPQIKNLLTNTPVDYEYESDAEEEQGDKDIKRKEYDGRKRDPKFANAEKSSLWEINNFINHFHPTVKTYANAYVTGETEQIAKPDLGLFTLSHFLDRFVYRSAKQTNTARGTSIMQPLFSGSRVNDSVLVKASDIMHDQGPVNTEDWLTKKVEDIKPEDKFFYQYFTTKKTADGKGKKSNKASNFDSDDEMDENEIWSALVKSRPDVEDDSDDSELDFAEDDFSDSTSDDEPKLDAIDDEDAKSEGSQESDQEEGLDEDIFYSFDGEQDNSDKKRSFAESSEEDESSEEEKEEEENKEVSAKRAKKKQRKNMLKSLPVFASADDYAQYLDQDSD

What follows are binders tested against T1, Ssf1-TAP (S. cerevisiae) (assay: affinity purification with mass spectrometry; tandem-affinity purification from yeast lysate, elution from Calmodulin Sepharose with 0.8% ammonium hydroxide; label-free semi-quantitative LC-MS/MS (LFQ, MaxQuant); for Figure 8A, B from wild-type and Δrbp95 strains).

Row | binding | Binder
1 | binds weakly | B1
2 | binds weakly | B2
3 | binds | B3
